{"source": "patent US20210227843A1", "about": "“A TEMPERING COMPOSITION FOR TEMPERING GRAIN AND CONTROLLING PATHOGENS IN AND/OR ON SAID GRAIN, AN OXIDIZING COMPOSITION FOR PREPARING SAID TEMPERING COMPOSITION, A USE OF SAID TEMPERING COMPOSITION AND A METHOD OF USE OF SAID TEMPERING COMPOSITION” (AGRI-NEO INC., priority 2017, published 2021)", "test": "Flour functionality, sensory and physical characteristics after tempering wheat in an organic flour mill (Example 1)", "conditions": "2 L per ton of wheat (citric acid 2 Kg); 16 h hold", "data": [{"compound": "O=C(O)CC(O)(CC(=O)O)C(=O)O", "note": "[Citric acid]", "values": [{"measurement": "% Hydration", "result": 60, "unit": "%"}, {"measurement": "Bread size-mold", "result": 158, "unit": "mm"}, {"measurement": "EXTENSO 1 3 h 30 after fermen. Energy", "result": 75, "unit": "cm-2"}, {"measurement": "EXTENSO 1 3 h 30 after fermen. Maximum", "result": 298, "unit": "mm"}, {"measurement": "EXTENSO 1 3 h 30 after fermen. Ratio Max", "result": 1.5, "unit": "EU/mm"}, {"measurement": "EXTENSO 1 3 h 30 after fermen. Resistance", "result": 207, "unit": "EU"}, {"measurement": "EXTENSO 1 Energy", "result": 130, "unit": "cm-2"}, {"measurement": "EXTENSO 1 Extensibility", "result": 149, "unit": "mm"}, {"measurement": "EXTENSO 1 Resistance (EU = extensograph petrin outle tunit)", "result": 459, "unit": "EU"}, {"measurement": "EXTENSO 2 Division after fermen Energy", "result": 136, "unit": "cm-2"}, {"measurement": "EXTENSO 2 Division after fermen Extensibility", "result": 136, "unit": "mm"}, {"measurement": "EXTENSO 2 Division after fermen Maximum", "result": 809, "unit": "mm"}, {"measurement": "EXTENSO 2 Division after fermen Ratio", "result": 4.5, "unit": "EU/mm"}, {"measurement": "EXTENSO 2 Division after fermen Ratio Max", "result": 6, "unit": "EU/mm"}, {"measurement": "EXTENSO 2 Division after fermen Resistance", "result": 613, "unit": "EU"}, {"measurement": "FOSS % Proteins", "result": 11.32, "unit": "%"}, {"measurement": "FOSS % gluten", "result": 31.97, "unit": "%"}, {"measurement": "FOSS % humidity", "result": 13.5, "unit": "%"}, {"measurement": "GPT % Gluten—Wet", "result": 34.8, "unit": "%"}, {"measurement": "GPT % Protein content", "result": 11.3, "unit": "%"}, {"measurement": "IDC", "result": 367, "unit": "s"}, {"measurement": "MIXOLAB Aff 12 min", "result": 0.022, "unit": "Nm"}, {"measurement": "PMT", "result": 185, "unit": "s"}, {"measurement": "VMI Temperature", "result": 23.6, "unit": "°C"}]}]}
